Source: patent US20120129720

The chains behind the UniProt entries cited, without tags or fusion partners. Where a name states a change or a piece, a line headed by the entry shows the natural chain unless it says otherwise.
UniProt P14174: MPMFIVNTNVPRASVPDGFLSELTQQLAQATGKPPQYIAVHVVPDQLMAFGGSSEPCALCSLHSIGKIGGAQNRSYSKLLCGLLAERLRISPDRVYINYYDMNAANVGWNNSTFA

Assays:
Assay in all cases: ELONA
H (His-GFP) = H (His-GFP) (UniProt P42212); conditions: 3' A20 tail for capture; lower signal than HTX and HT; protein in a lysate after overexpression; label: biotin-T20 hybridised to tail
HT (His-T7 leader-GFP) = HT (His-T7 leader-GFP) (UniProt P42212); conditions: 3' A20 tail for capture, protein in a lysate after overexpression
[1] = molecular target: HTX (His-T7 leader-Xpress-GFP) (UniProt P42212); conditions: 3' A20 tail for capture; HTX about equal to HT, greater than H; anti-GFP capture; protein in a lysate after overexpression; label: biotin-T20 hybridised to …
[2] = molecular target: MIF (His-tag removed by enterokinase) (UniProt P14174); conditions: 3' A20 tail for capture; His-tag removed; anti-MIF capture; purified recombinant protein; protein details: tag cleaved from ATGen His-MIF with enterokinase; label: biotin-T20 hybridised to tail
T (T7 leader-GFP) = T (T7 leader-GFP) (UniProt P42212); conditions: 3' A20 tail for capture; no His-tag; protein in a lysate after overexpression; label: biotin-T20 hybridised to tail
[3] = molecular target: TX (T7 leader-Xpress-GFP) (UniProt P42212); conditions: 3' A20 tail for capture; no His-tag; protein in a lysate after overexpression; label: biotin-T20 hybridised to tail

Sequence | binding result (H (His-GFP)) | binding result (HT (His-T7 leader-GFP); label: biotin-T20 hybridised to tail) | binding result [1] | binding result [2] | binding result (T (T7 leader-GFP)) | binding result [3] | binding result (HT (His-T7 leader-GFP); anti-GFP capture, label: biotin-T20 hybridised to tail (ELISA), variant of shot47)
GGGACGCUCACGUACGCUCACGUCCGAUCGAUACUGGUAUAUUGGCGCCUUCGUGGAAUGUCAGUGCCUGGACGUGCAGU [shot47] | binds | binds | binds | no binding | no binding | no binding | 
GGGUAUAUUGGCGCCUUCGUGGAAUGUCAGUGCCUGG [shot47sss] |  |  |  |  |  |  | binds

For some of these results: Negatives hold for the conditions tested. For some of these results: Where cells or extracts were used, other partners may take part.
